US20070191491A1, “[…] OF STORED GOODS, ENCLOSURES, […] WORKS OF ART, WITH SULPHUR COMPOUNDS” (Arkema France, priority 2002, published 2007)

Legend:
[1] = DMDS concentration in chamber atmosphere after nebulization onto wheat grains (SPME-GC-MS); conditions: 90 mg DMDS as 30% solution in Radia 7961, nebulized on 1 kg wheat, 20° C.
[2] = Spontaneous diffusion of DMDS in a silo of wheat grains (CT by gas chromatography); conditions: pure DMDS 30 gm^−3 deposited at surface, 20° C.; for CT at point C: lower end of silo (−72 cm); for CT at point A: surface of grains (0 cm); for CT at point B: −36 cm below grain level

In the case of `CSSC` [DMDS, dimethyl disulphide], the “time of treatment to reach useful product CT of 100 ghm^−3” value [1] is reported as 30 h, the “concentration of DMDS in the atmosphere of the chamber” value ([1]; reached after first 5 hours, then constant during 5 days) is reported as 3 gm^−3 and the “CT at point C” value ([2]; 1 day) is reported as 4 ghm^−3. For the same compound, the “CT at point A” value ([2]; 1 day) was 542 ghm^−3, the “CT at point B” value ([2]; 1 day) was 46 ghm^−3 and the “CT at point C” value ([2]; 2 days) was 14 ghm^−3. For the same compound, the “CT at point A” value ([2]; 2 days) was 630 ghm^−3, the “CT at point B” value ([2]; 2 days) was 80 ghm^−3 and the “CT at point C” value ([2]; 3 days) was 62 ghm^−3. The “CT at point A” value ([2]; 3 days) was 821 ghm^−3 and the “CT at point B” value ([2]; 3 days) was 180 ghm^−3.
